Experimental data: PubChem BioAssay AID652243 (Drosophila RNAi Screening Center, 2013)

- Aim: 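Fly genes required for human androgen receptor driven transcription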 (primary screen)
- Cell system: Drosophila S2R+ cells
- Knock-down reagent: long dsRNA against Drosophila genes
- Timing: 72 h (48 h, then 24 h hormone)
- Treatment: synthetic androgen R1881 at 10 nM for 24 h
- Measured: 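Per-well raw luminescence of the androgen-driven firefly reporter and of the Renilla control, two replicates each, without normalisation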
- Scale: firefly reporter light: higher = more light from androgen-responsive reporter; Renilla control light: higher = more constitutive control signal (cell number, transfection)
- Call rule: 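Across duplicate plates, a knock-down whose log firefly/Renilla ratio shifted a set fold down or up from the GFP/LacZ control mean was a hit; the downward cut appears as both 1.5 and 3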
- Meaning of the calls: active = hit: reporter lowered or raised; inactive = no hit
The deposit covers about 24,000 reagents; below is an unselected part of those that have a named target and a result. Over the whole deposit, 246 (1%) were called active. 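Plates not normalised; calls are printed but the firefly/Renilla ratio behind them is not deposited; fold cut for lowering reported inconsistently.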 Raw values are not corrected between plates. A plus sign joins genes that one reagent is predicted to hit. Not stated in the record: the amount of reagent.

CG31198 [DRSC15891]
- firefly reporter light, replicate 1: 91854
- firefly reporter light, replicate 2: 98543
- Renilla control light, replicate 1: 6.34e5
- Renilla control light, replicate 2: 7.47e5
- outcome: inactive

Fas3 [DRSC03326]
- firefly reporter light, replicate 1: 1.75e5
- firefly reporter light, replicate 2: 1.61e5
- Renilla control light, replicate 1: 1.14e6
- Renilla control light, replicate 2: 9.43e5
- outcome: inactive

Fas3 [DRSC22776]
- firefly reporter light, replicate 1: 9.40e5
- firefly reporter light, replicate 2: 1.22e6
- Renilla control light, replicate 1: 1.97e6
- Renilla control light, replicate 2: 2.67e6
- outcome: inactive

Fas3 [DRSC28665]
- firefly reporter light, replicate 1: 5.13e5
- firefly reporter light, replicate 2: 3.92e5
- Renilla control light, replicate 1: 1.20e6
- Renilla control light, replicate 2: 1.26e6
- outcome: inactive

CG13875 [DRSC08345]
- firefly reporter light, replicate 1: 1.12e5
- firefly reporter light, replicate 2: 99396
- Renilla control light, replicate 1: 9.00e5
- Renilla control light, replicate 2: 1.20e6
- outcome: inactive

CG6972 [DRSC16159]
- firefly reporter light, replicate 1: 2.31e5
- firefly reporter light, replicate 2: 3.24e5
- Renilla control light, replicate 1: 1.56e6
- Renilla control light, replicate 2: 2.17e6
- outcome: inactive

CG6972 [DRSC29649]
- firefly reporter light, replicate 1: 5.07e5
- firefly reporter light, replicate 2: 4.46e5
- Renilla control light, replicate 1: 1.81e6
- Renilla control light, replicate 2: 1.81e6
- outcome: inactive

CG7065 [DRSC18420]
- firefly reporter light, replicate 1: 1.09e5
- firefly reporter light, replicate 2: 1.17e5
- Renilla control light, replicate 1: 1.10e6
- Renilla control light, replicate 2: 1.09e6
- outcome: inactive

CG7065 [DRSC25280]
- firefly reporter light, replicate 1: 7.37e5
- firefly reporter light, replicate 2: 7.97e5
- Renilla control light, replicate 1: 7.40e5
- Renilla control light, replicate 2: 7.07e5
- outcome: inactive

Ugt36A1 + CG15418 [DRSC00432]
- firefly reporter light, replicate 1: 1.60e5
- firefly reporter light, replicate 2: 1.44e5
- Renilla control light, replicate 1: 1.18e6
- Renilla control light, replicate 2: 1.18e6
- outcome: inactive

Ugt36A1 + CG15418 [DRSC24109]
- firefly reporter light, replicate 1: 8.99e5
- firefly reporter light, replicate 2: 7.95e5
- Renilla control light, replicate 1: 6.90e5
- Renilla control light, replicate 2: 6.05e5
- outcome: inactive

CG30380 [DRSC05069]
- firefly reporter light, replicate 1: 1.57e5
- firefly reporter light, replicate 2: 2.08e5
- Renilla control light, replicate 1: 3.26e5
- Renilla control light, replicate 2: 3.27e5
- outcome: inactive

CG13737 [DRSC10064]
- firefly reporter light, replicate 1: 2.07e5
- firefly reporter light, replicate 2: 2.12e5
- Renilla control light, replicate 1: 3.02e6
- Renilla control light, replicate 2: 2.39e6
- outcome: inactive

CG4860 [DRSC15664]
- firefly reporter light, replicate 1: 4.66e5
- firefly reporter light, replicate 2: 4.44e5
- Renilla control light, replicate 1: 3.86e6
- Renilla control light, replicate 2: 3.58e6
- outcome: inactive

CG4860 [DRSC21755]
- firefly reporter light, replicate 1: 5.64e5
- firefly reporter light, replicate 2: 5.11e5
- Renilla control light, replicate 1: 6.37e5
- Renilla control light, replicate 2: 7.48e5
- outcome: inactive

galene [DRSC08640]
- firefly reporter light, replicate 1: 51340
- firefly reporter light, replicate 2: 83667
- Renilla control light, replicate 1: 7.96e5
- Renilla control light, replicate 2: 8.31e5
- outcome: inactive

galene [DRSC08641]
- firefly reporter light, replicate 1: 1.40e5
- firefly reporter light, replicate 2: 2.18e5
- Renilla control light, replicate 1: 2.89e6
- Renilla control light, replicate 2: 2.26e6
- outcome: inactive

Datp [DRSC01102]
- firefly reporter light, replicate 1: 78301
- firefly reporter light, replicate 2: 1.36e5
- Renilla control light, replicate 1: 3.07e5
- Renilla control light, replicate 2: 2.96e5
- outcome: inactive

TTLL3A [DRSC02143]
- firefly reporter light, replicate 1: 1.77e5
- firefly reporter light, replicate 2: 1.68e5
- Renilla control light, replicate 1: 2.00e6
- Renilla control light, replicate 2: 1.70e6
- outcome: inactive

TTLL3A [DRSC28462]
- firefly reporter light, replicate 1: 5.66e5
- firefly reporter light, replicate 2: 6.48e5
- Renilla control light, replicate 1: 6.39e5
- Renilla control light, replicate 2: 9.73e5
- outcome: inactive

Gr98b [DRSC21675]
- firefly reporter light, replicate 1: 6.31e5
- firefly reporter light, replicate 2: 6.92e5
- Renilla control light, replicate 1: 1.75e6
- Renilla control light, replicate 2: 1.63e6
- outcome: inactive
